# At least one compound was matched to its structure with a doubt left.
# Test system: isolated rabbit hearts
# Assay: Clofilium-induced early afterdepolarizations (EADs) in isolated perfused rabbit hearts
# Conditions: Cd2+ 200-500 μmol/l or nifedipine 10 μmol/l added to perfusate
# Description: FIG. 1. […] Data tracings show (from top to bottom) monophasic action potentials (MAP) and left ventricular (LV) pressure. The horizontal lines to the left of the LV pressure tracings (top to bottom) indicate 100 mm Hg and 0 mm Hg levels and 850 ms for panels A and B. All experiments with isolated hearts consisted of 3 periods. A fourth period (experimental period 4) was only added in hearts with EADs. Experimental periods are labeled 1-4 (top of page for both panels A and B). Experimental period 1 measurements represent control and follow >10 min of stabilization. […] Period 3 measurements follow addition of clofilium (7.5 μmole/l) and are taken at EAD initiation or from the longest action potential duration recorded over 30 min. […]
# New Zealand White rabbits of either gender (2.7-3.2 kg) were treated with a heparin bolus (150 U/kg IV) and killed by pentobarbital (50 mg/kg IV) overdose. […] Temperature was monitored using a thermistor probe positioned in the right ventricle (RV) and maintained at 33±1° C. by a closed loop feed back system. The perfusate was vigorously bubbled with 95% O2, 5% CO2 and pH was monitored throughout the experiments and adjusted to 7.4 with LN NaOH or HCl, as appropriate. […] In most experiments LV pressure was continuously monitored with a solid state transducer (Camino Laboratories) placed in a saline filled latex balloon. […]
structure (smiles),measurement,value
COC(=O)C1=C(C)NC(C)=C(C(=O)OC)C1c1ccccc1[N+](=O)[O-] [nifedipine],termination of clofilium-induced EADs,terminated

# Reference: patent publication US7251525B2, “Treatment of arrhythmias via inhibition of a multifunctional calcium/calmodulin-dependent protein kinase” (The Board of Trustees of the Leland Stanford Jr. University, priority 1997, dated 2007)
